This assay addresses recombinant FLAG-tagged Themis2 protein (mouse) (UniProt Q91YX0). Description: affinity purification with mass spectrometry; 2 mg nuclear proteins of effector Themis2-/- NK cells incubated with 200 ug purified Themis2-FLAG for 3 h at 4 °C; cross-linked with 1 mM DTSSP; anti-FLAG M2 affinity gel, eluted with 3x FLAG peptides; unique silver-stained bands analysed by MALDI-TOF, MASCOT; only the target purified.

Sequences of proteins named here, by UniProt entry; tags and fusion partners are left off.
UniProt Q91YX0: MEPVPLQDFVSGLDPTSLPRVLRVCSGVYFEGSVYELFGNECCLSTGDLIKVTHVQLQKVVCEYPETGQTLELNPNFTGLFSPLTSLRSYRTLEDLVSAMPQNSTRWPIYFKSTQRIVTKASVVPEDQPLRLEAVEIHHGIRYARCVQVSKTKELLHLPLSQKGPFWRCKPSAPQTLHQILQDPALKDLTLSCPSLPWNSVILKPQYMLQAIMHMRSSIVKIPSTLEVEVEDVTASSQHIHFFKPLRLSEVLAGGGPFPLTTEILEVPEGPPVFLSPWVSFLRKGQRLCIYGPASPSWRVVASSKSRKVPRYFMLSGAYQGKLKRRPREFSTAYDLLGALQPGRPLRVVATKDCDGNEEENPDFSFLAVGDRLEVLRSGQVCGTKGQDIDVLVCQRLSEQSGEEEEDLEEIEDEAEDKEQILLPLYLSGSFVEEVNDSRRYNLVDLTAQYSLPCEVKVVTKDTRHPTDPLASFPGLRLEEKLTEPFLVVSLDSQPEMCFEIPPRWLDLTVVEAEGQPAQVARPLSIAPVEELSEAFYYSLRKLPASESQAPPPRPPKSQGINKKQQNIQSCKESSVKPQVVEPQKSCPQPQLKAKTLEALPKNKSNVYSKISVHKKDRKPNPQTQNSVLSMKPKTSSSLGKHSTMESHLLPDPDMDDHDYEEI

No constants are given. Whether binding was seen depends on the method and setting. In cells and extracts the contact can be indirect. Here binding means that the protein was enriched with, or labelled near, the bait; the list need not be complete.

B1: Zfp740 (protein, UniProt Q6NZQ6 1-180)
chain: MMLSQIASKQAENGERAGSPDVLRCSSQMDCKPRFDLSSKGHRKDSDKSRNRKEDDSLAEASHSKKTVKKVVVVEQNGSFQVKIPKNFICEHCFGAFRSSYHLKRHVLIHTGEKPFECDVCDMRFIQKYHLERHKRVHSGEKPYQCERCHQCFSRTDRLLRHKRMCQGCQSKTSEGQFSL
In the case of B1, the binding entry was “binds”.

Values taken from publication PMC10632368.
